The subject of this assay is nude mice, HT29 intrarenal xenograft, tumor weight T/C. Put plainly: NCI In Vivo Anticancer Drug Screen. Data for tumor model HT29;CX-1 Human Adenocarcinoma (MER+) (intrarenal inoculation) in NU/NU Swiss (nude) mice. As to conditions: T/C endpoint: mean tumor weight change, higher T/C = larger tumour. The procedure, abridged: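 Mice with transplanted tumors are dosed with compound while controls get vehicle only. Survival or tumor burden is then assessed per group, and the treated value is expressed relative to control.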

[1] abbreviates: dose: 150.0 mg/kg/injection, schedule: Q04DX004 (sc), vehicle: saline.
[2] abbreviates: dose: 1200.0 mg/kg/injection, schedule: Q04DX004 (sc), vehicle: saline.

Structures are written as SMILES. The list shows only some results of the screen, not a fair sample: it is rich in T/C values a quarter to a half above the control, in often repeated tests (any T/C) and in doses without a T/C. Other doses and runs of a compound stand elsewhere. T/C: endpoint of the treated group in % of that of the vehicle group. Schedules are NCI's codes, read here as Q, the interval in days (D) or hours (H), X, the number of doses. Some T/C values are followed by the survivors on the day toxicity was checked, most often the fifth; without a count, all were alive then. Some entries give survivors of the animals treated and no T/C: the source files T/C as zero there, which appears to mark a toxic dose or a test without result, not a measured value. Counts of survivors are from the toxicity check (mostly the fifth day) where no day follows; animals may have died later. Some doses were run more than once; the values are given in rising order.

On to `CSc1ccc2c(c1)C(N1CCN(C)CC1)Cc1ccccc1S2` (stereo not drawn), for which, where the note is “dose: 100.0 mg/kg/injection, schedule: Q04DX004 (sc), vehicle: saline with Tween-80, evaluated on day 15”, the T/C was 135 % of control [5 of 6 alive on day 15].
Turning to `O=CC(O)C(O)C(O)C(O)C(=O)O.[NH-]C1CCCCC1[NH-].[Pt+2]` (stereo not drawn), the survivor count is 1 of 6 on day 15 (dose: 37.5 mg/kg/injection, schedule: Q04DX004 (sc), vehicle: suspension in saline) and 0 of 6 on day 15 (dose: 75.0 mg/kg/injection, schedule: Q04DX004 (sc), vehicle: suspension in saline).
On to `Cc1ccccc1SSc1ccccc1C`, for which the T/C is 146 % of control (dose: 400.0 mg/kg/injection, schedule: Q01DX010 (sc), vehicle: saline with Tween-80, evaluated on day 20) and 147 % of control (dose: 800.0 mg/kg/injection, schedule: Q01DX010 (sc), vehicle: saline with Tween-80, evaluated on day 20).
Take `O=NN(CCF)C(=O)NC1CCCCC1`: the survivor count by setting is: (dose: 50.0 mg/kg/injection, schedule: Q04DX004 (sc), vehicle: Klucel (hydroxypropylcellulose) (HPC)) 0 of 6 on day 15; (dose: 75.0 mg/kg/injection, schedule: Q04DX004 (sc), vehicle: Klucel (hydroxypropylcellulose) (HPC)) 0 of 6 on day 15; (dose: 150.0 mg/kg/injection, schedule: Q04DX004 (sc), vehicle: Klucel (hydroxypropylcellulose) (HPC)) 0 of 6 on day 15; (dose: 300.0 mg/kg/injection, schedule: Q04DX004 (sc), vehicle: Klucel (hydroxypropylcellulose) (HPC)) 0 of 6 on day 15; (dose: 600.0 mg/kg/injection, schedule: Q04DX004 (sc), vehicle: Klucel (hydroxypropylcellulose) (HPC)) 0 of 6 on day 15.
`CCC/C=C/C=C/C(=O)OC1/C(=C/C(=O)OC)CC2CC(C(C)O)OC(=O)CC(O)CC3CC(OC(C)=O)C(C)(C)C(O)(CC4C/C(=C/C(=O)OC)CC(/C=C/C(C)(C)C1(O)O2)O4)O3` (stereo not drawn): the T/C (dose: 2.0 mg/kg/injection, schedule: Q04DX004 (sc), vehicle: saline + alcohol, evaluated on day 15) was 132 % of control [5 of 6 alive on day 15].
`CC1=C(C)C(=O)O[C@@H]([C@](C)(O)[C@]2(O)CC[C@@]3(O)[C@@H]4C[C@H]5O[C@]56[C@@H](O)C=CC(=O)[C@]6(C)[C@H]4CC[C@]23C)C1`: the survivor count is, setting by setting: (dose: 64.0 mg/kg/injection, schedule: Q01DX010 (sc), vehicle: saline) 0 of 3 on day 11; (dose: 128.0 mg/kg/injection, schedule: Q01DX010 (sc), vehicle: saline) 1 of 6 on day 11.
Take `COc1cc(C(=O)N/N=C/c2cccc([N+](=O)[O-])c2)cc(OC)c1OC`: the T/C (dose: 300.0 mg/kg/injection, schedule: Q04DX004 (sc), vehicle: saline with Tween-80, evaluated on day 15) was 144 % of control.
As to `CCC1(O)CC2CN(CCc3c([nH]c4ccccc34)C(C(=O)OC)(c3cc4c(cc3OC)N(C)C3C(O)(C(=O)NCCSSCCNC(=O)C5(O)C(O)C6(CC)C=CCN7CCC8(c9cc(C%10(C(=O)OC)CC%11CN(CCc%12c%10[nH]c%10ccccc%12%10)CC(O)(CC)C%11)c(OC)cc9N(C)C58)C76)C(O)C5(CC)C=CCN6CCC43C65)C2)C1` (stereo not drawn), the survivor count by setting is: (dose: 3.0 mg/kg/injection, schedule: Q04DX004 (sc), vehicle: saline) 2 of 6 on day 15; (dose: 6.0 mg/kg/injection, schedule: Q04DX004 (sc), vehicle: saline) 0 of 6 on day 15 and 1 of 6 on day 15; (dose: 12.0 mg/kg/injection, schedule: Q04DX004 (sc), vehicle: saline) 0 of 6 on day 15.
For `S=P(N1CC1)(N1CC1)N1CC1`, the survivor count is given as 0 of 3 on day 20 (dose: 4.0 mg/kg/injection, schedule: Q01DX010 (sc), vehicle: saline) and 0 of 3 on day 20 (dose: 8.0 mg/kg/injection, schedule: Q01DX010 (sc), vehicle: saline).
Turning to `COCC1OC2OC3C(COC)OC(OC4C(COC)OC(OC5C(COC)OC(OC6C(COC)OC(OC7C(COC)OC(OC8C(COC)OC(OC1C(O)C2O)C(O)C8O)C(O)C7O)C(O)C6O)C(O)C5O)C(O)C4O)C(O)C3O` (stereo not drawn) (tested in a mixture with another compound), the T/C (dose: 400.0 mg/kg/injection, schedule: Q04DX004 (sc), vehicle: Klucel (hydroxypropylcellulose) (HPC), evaluated on day 15) was 137 % of control and the T/C (dose: 800.0 mg/kg/injection, schedule: Q04DX004 (sc), vehicle: Klucel (hydroxypropylcellulose) (HPC), evaluated on day 15) is 140 % of control [5 of 6 alive on day 15].
For the compound `O=NN(CCCl)C(=O)NC1[C@H](O)CCC[C@@H]1O` (stereo partly drawn), the survivor count by setting is: (dose: 20.0 mg/kg/injection, schedule: Q04DX004 (sc), vehicle: saline) 2 of 6 on day 15; (dose: 40.0 mg/kg/injection, schedule: Q04DX004 (sc), vehicle: saline) 0 of 6 on day 15; (dose: 80.0 mg/kg/injection, schedule: Q04DX004 (sc), vehicle: saline) 0 of 6 on day 15.
As to `CN(Cc1cnc2nc(N)nc(N)c2n1)c1ccc(C(=O)N[C@@H](CCC(=O)O)C(=O)O)cc1`, the survivor count is on record as 0 of 3 on day 11 (dose: 2.0 mg/kg/injection, schedule: Q01DX010 (sc), vehicle: sodium bicarbonate) and 0 of 3 on day 11 (dose: 4.0 mg/kg/injection, schedule: Q01DX010 (sc), vehicle: sodium bicarbonate).
`COC(=O)C12OCC34C(CC5C(C)C6=CC(=O)OC6=CC5(C)C3C(O)C1O)OC(=O)C(OC(C)=O)C24` (stereo not drawn): under “dose: 2.5 mg/kg/injection, schedule: Q04DX004 (sc), vehicle: saline + alcohol, evaluated on day 15”, the T/C is 144 % of control.
Consider `CN=C(N)N/N=C(\c1ccccc1)c1ccc(Br)cc1`, for which the survivor count (dose: 100.0 mg/kg/injection, schedule: Q04DX004 (sc), vehicle: saline with Tween-80) is recorded as 0 of 6 on day 15, 1 of 5 on day 15, 1 of 4 on day 15.
For `N=C1CCCS1`, the survivor count is listed as 0 of 6 on day 15 under setting [1]; 0 of 6 on day 15 (dose: 300.0 mg/kg/injection, schedule: Q04DX004 (sc), vehicle: saline); 0 of 6 on day 15 (dose: 600.0 mg/kg/injection, schedule: Q04DX004 (sc), vehicle: saline); 0 of 6 on day 15 under setting [2].
In the case of `COC(=O)c1ccoc1`, the T/C is, setting by setting: (dose: 300.0 mg/kg/injection, schedule: Q04DX004 (sc), vehicle: saline, evaluated on day 15) 129 % of control; (dose: 600.0 mg/kg/injection, schedule: Q04DX004 (sc), vehicle: saline, evaluated on day 15) 130 % of control. Also, the survivor count under setting [2] is recorded as 0 of 6 on day 15.
Consider `N=C(N)CCCCCCCCC(=N)N`, for which the survivor count (dose: 37.5 mg/kg/injection, schedule: Q04DX004 (sc), vehicle: saline) is given as 1 of 6 on day 15; the survivor count (dose: 75.0 mg/kg/injection, schedule: Q04DX004 (sc), vehicle: saline) was 0 of 6 on day 15; the survivor count under setting [1] was 0 of 6 on day 15.
On to `Cc1cc(NCCCCCCNc2cc(C)nc3cc(N(C)C)ccc23)c2ccc(N(C)C)cc2n1`, for which the survivor count reads like this: (dose: 150.0 mg/kg/injection, schedule: Q04DX004 (sc), vehicle: distilled water + Tween-80 + alcohol) 3 of 6 on day 15; (dose: 300.0 mg/kg/injection, schedule: Q04DX004 (sc), vehicle: distilled water + Tween-80 + alcohol) 2 of 6 on day 15.
With `BrC1CC(Br)c2c1c1c(c3c2C(Br)CC3Br)C(Br)CC1Br` (stereo not drawn), the T/C was 136 % of control (dose: 600.0 mg/kg/injection, schedule: Q04DX004 (sc), vehicle: water, evaluated on day 15) and 128 % of control (dose: 2400.0 mg/kg/injection, schedule: Q04DX004 (sc), vehicle: water, evaluated on day 15).
For `CC1(C)COCN1COC1CCCCC1`, under “dose: 1600.0 mg/kg/injection, schedule: Q04DX004 (sc), vehicle: saline”, the survivor count is reported as 2 of 6 on day 15.
On to `O=C([CH-]C(=O)C(F)(F)F)c1ccccc1.O=C([CH-]C(=O)C(F)(F)F)c1ccccc1.O=C([CH-]C(=O)C(F)(F)F)c1ccccc1.O=C([CH-]C(=O)C(F)(F)F)c1ccccc1.[Eu+3].c1ccncc1`, for which the survivor count (dose: 1600.0 mg/kg/injection, schedule: Q01DX010 (sc), vehicle: Klucel (hydroxypropylcellulose) (HPC)) was 1 of 3 on day 11.
As for `CS(=O)(=O)OCCN(CCOS(C)(=O)=O)c1ccc(C=Nc2ccc(-c3csc(COc4ccccc4)n3)cc2)cc1`, the survivor count is, setting by setting: (dose: 200.0 mg/kg/injection, schedule: Q01DX010 (sc), vehicle: Klucel (hydroxypropylcellulose) (HPC)) 1 of 2 on day 11; (dose: 400.0 mg/kg/injection, schedule: Q01DX010 (sc), vehicle: Klucel (hydroxypropylcellulose) (HPC)) 0 of 3 on day 11.
Turning to `O=C1SC(c2ccccc2)=S=C1c1ccccc1`, the T/C was 126 % of control (dose: 600.0 mg/kg/injection, schedule: Q04DX004 (sc), vehicle: saline with Tween-80, evaluated on day 15) and 145 % of control (dose: 2400.0 mg/kg/injection, schedule: Q04DX004 (sc), vehicle: saline with Tween-80, evaluated on day 15).
